The results in this text go back to the supplement of paper PMC10849652.

The chains behind the UniProt entries cited, without tags or fusion partners. Where a name states a change or a piece, a line headed by the entry shows the natural chain unless it says otherwise.
UniProt Q96AA3: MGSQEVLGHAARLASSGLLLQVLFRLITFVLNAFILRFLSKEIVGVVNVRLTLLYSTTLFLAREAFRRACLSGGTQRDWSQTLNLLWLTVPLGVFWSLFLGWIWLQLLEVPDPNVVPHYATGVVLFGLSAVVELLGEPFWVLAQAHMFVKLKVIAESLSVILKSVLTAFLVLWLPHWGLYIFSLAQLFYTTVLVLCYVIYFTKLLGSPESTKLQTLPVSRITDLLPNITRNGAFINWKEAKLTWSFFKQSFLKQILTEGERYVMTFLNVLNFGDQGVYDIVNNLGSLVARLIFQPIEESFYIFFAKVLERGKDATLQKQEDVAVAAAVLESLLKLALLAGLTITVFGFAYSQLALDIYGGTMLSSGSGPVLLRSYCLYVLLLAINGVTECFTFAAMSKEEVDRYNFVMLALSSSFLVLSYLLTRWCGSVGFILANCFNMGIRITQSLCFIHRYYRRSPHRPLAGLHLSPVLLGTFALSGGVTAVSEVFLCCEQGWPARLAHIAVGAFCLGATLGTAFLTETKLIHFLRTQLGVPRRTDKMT
UniProt P22670: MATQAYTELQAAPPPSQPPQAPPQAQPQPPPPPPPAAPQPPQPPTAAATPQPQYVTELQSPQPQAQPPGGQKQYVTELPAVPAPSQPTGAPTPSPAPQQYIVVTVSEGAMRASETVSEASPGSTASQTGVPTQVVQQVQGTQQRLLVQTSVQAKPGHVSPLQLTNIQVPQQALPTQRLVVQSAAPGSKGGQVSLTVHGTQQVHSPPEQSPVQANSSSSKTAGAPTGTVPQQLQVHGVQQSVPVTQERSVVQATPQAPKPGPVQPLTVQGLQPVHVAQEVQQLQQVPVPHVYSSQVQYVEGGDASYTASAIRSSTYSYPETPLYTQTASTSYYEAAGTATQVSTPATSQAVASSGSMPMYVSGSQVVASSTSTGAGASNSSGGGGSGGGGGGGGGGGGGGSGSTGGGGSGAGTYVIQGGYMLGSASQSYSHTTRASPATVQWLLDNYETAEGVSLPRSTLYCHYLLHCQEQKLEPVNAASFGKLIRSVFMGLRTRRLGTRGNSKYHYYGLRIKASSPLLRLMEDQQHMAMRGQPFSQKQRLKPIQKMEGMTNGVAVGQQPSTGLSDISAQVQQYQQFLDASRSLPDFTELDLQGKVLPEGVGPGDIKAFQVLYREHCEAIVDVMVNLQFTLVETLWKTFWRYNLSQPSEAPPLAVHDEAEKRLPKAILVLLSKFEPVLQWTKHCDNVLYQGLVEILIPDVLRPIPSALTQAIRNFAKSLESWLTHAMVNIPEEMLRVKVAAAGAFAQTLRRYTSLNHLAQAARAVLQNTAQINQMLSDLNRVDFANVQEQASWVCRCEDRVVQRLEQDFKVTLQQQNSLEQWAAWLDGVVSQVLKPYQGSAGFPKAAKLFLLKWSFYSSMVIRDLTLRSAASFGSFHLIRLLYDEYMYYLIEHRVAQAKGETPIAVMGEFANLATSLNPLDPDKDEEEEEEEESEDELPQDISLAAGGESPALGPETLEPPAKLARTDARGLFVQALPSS
UniProt P62877, whole entry, looked up: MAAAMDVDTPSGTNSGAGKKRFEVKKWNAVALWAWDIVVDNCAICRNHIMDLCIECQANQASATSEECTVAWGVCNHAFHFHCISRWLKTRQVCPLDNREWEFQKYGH
UniProt P18754: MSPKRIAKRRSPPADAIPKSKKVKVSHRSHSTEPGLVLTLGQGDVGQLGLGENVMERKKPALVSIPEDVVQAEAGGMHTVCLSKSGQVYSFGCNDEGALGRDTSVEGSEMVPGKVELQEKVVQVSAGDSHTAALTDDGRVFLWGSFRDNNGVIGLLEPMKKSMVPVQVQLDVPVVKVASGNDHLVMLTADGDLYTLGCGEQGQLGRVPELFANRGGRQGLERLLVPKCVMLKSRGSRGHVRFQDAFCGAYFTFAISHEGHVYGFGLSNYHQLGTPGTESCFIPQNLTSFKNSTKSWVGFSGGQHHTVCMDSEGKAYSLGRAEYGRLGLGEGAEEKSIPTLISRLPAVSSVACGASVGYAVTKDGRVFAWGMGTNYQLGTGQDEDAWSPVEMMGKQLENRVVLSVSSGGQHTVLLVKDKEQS
UniProt Q14257: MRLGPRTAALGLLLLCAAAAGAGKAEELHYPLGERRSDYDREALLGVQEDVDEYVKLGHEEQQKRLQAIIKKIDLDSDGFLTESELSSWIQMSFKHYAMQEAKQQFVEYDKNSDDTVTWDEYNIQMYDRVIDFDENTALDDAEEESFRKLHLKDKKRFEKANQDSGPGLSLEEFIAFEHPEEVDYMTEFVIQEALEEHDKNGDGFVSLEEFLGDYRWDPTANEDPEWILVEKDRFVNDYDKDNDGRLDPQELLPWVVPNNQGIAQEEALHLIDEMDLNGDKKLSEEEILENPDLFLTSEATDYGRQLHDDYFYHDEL
UniProt P38159: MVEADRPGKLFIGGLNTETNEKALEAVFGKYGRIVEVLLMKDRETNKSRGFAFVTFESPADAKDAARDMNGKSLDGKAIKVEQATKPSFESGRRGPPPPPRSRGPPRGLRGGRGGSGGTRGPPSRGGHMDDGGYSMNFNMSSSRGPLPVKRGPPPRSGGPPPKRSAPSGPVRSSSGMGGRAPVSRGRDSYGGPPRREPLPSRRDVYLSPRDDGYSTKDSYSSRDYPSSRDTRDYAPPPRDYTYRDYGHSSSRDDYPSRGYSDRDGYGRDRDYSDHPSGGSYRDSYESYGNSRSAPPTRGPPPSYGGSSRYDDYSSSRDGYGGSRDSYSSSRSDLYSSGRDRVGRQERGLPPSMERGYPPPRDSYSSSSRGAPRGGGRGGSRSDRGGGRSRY
UniProt Q9UBZ9: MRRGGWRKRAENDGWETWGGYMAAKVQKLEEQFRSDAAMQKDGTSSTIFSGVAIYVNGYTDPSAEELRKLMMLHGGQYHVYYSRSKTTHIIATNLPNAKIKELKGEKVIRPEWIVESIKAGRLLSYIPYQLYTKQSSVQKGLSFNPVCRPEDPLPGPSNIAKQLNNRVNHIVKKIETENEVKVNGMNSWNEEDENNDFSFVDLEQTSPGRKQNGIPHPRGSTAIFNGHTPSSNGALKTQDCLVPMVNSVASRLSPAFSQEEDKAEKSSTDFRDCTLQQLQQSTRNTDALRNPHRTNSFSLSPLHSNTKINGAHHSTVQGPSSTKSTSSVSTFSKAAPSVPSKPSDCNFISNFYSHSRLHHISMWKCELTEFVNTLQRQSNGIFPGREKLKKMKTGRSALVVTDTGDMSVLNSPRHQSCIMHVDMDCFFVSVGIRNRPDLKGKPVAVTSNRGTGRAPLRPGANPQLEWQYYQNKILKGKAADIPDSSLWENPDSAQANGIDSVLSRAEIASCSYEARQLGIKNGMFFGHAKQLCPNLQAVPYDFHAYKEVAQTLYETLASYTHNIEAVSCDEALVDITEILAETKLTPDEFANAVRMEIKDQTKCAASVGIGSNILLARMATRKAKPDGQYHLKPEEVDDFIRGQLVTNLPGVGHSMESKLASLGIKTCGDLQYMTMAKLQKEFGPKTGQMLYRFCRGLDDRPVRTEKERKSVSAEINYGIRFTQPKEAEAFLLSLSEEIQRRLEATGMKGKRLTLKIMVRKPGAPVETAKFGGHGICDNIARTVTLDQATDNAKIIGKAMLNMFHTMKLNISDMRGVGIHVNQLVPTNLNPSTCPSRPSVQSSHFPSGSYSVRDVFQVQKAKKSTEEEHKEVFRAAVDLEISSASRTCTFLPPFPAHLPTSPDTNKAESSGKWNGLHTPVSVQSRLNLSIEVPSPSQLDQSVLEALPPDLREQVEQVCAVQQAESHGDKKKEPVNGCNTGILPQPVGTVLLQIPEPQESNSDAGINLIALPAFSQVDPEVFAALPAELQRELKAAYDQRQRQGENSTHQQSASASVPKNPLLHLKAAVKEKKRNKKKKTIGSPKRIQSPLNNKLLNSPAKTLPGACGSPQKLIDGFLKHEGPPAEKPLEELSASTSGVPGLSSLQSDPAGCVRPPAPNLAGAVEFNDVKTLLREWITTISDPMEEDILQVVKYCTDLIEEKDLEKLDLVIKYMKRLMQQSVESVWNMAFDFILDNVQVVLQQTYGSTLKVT
UniProt Q9Y256: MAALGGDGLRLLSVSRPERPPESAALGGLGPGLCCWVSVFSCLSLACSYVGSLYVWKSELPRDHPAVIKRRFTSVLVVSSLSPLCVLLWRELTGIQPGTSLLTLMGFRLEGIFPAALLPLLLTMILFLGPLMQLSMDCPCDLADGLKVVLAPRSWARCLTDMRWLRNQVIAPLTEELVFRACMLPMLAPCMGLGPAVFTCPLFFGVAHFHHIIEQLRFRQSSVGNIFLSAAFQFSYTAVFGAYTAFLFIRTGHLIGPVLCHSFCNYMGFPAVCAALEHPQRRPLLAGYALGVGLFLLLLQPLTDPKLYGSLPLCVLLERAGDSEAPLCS
UniProt Q9BWF3: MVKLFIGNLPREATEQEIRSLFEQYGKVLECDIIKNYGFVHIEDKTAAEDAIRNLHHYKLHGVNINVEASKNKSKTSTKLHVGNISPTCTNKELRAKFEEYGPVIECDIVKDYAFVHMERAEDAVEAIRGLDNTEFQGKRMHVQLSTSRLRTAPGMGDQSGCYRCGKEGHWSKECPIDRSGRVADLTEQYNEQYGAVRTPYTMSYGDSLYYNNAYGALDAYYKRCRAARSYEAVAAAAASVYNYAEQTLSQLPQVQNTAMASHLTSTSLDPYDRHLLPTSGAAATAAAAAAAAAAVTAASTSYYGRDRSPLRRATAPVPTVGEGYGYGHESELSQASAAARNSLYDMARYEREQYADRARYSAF

The other results are listed elsewhere or left out.

What all share (test): log2 fold change, soluble protein after heating vs DMSO (PISA); higher = thermal stabilisation; K562 lysate, 10 uM; active = over 0.2 and 3.5 SD of the protein, either way, in both replicates (recomputed)
Compound in one assay: Cc1cn(-c2cc(NC(=O)c3ccc(C)c(Nc4nccc(-c5cccnc5)n4)c3)cc(C(F)(F)F)c2)cn1 [nilotinib]
In short, it runs like this: (§1)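 Dounce homogenisation of K562 pellets in PBS pH 7.4 with 1 mM MgCl2 produced a crude extract, used at 1 mg/mL protein. Exposure to 10 μM compound lasted 30 min, and aliquots were then heated for 3 min across 48°C-58°C, pooled and brought to 0.5% NP-40 at 4°C. The supernatant after 21,000xg for 90 min was quantified by TMTpro 16plex LC-MS/MS with channel sums equalised. Duplicate values are given as log-two fold change in thermal stability relative to solvent controls.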

Compound in assay [1]: Cc1nc(Nc2n[nH]c3c2CN(C(=O)N[C@H](CN(C)C)c2ccccc2)C3(C)C)c2sccc2n1
Summed up:
as §1

Compound in another assay: Cc1nc(Nc2ncc(C(=O)Nc3c(C)cccc3Cl)s2)cc(N2CCN(CCO)CC2)n1 [dasatinib]
In short, it runs like this:
as §1

Compound in assay [2]: Cc1ncc(-c2ccnc(Nc3ccc(S(C)(=O)=O)cc3)n2)n1C(C)C
Summed up:
as §1

Compound in assay [3]: Cn1cc(-c2ccc3c(c2)CCN3C(=O)Cc2cccc(C(F)(F)F)c2)c2c(N)ncnc21
Summed up:
as §1

Compound in another assay: Cn1cc(CNCC2CCN(c3ncc(C(=O)NO)cn3)CC2)c2ccccc21 [quisinostat]
In short, it runs like this:
as §1

Compound in the next assay: Cn1cncc1[C@@](N)(c1ccc(Cl)cc1)c1ccc2c(c1)c(-c1cccc(Cl)c1)cc(=O)n2C [tipifarnib]
Summed up: as §1

Compound in assay [4]: NC(=O)Nc1cc(-c2cccc(F)c2)sc1C(=O)N[C@H]1CCCNC1
In short, it runs like this: as §1

Compound in assay [5]: NC(=O)c1cnc(N[C@@H]2CCCC[C@@H]2N)nc1Nc1cccc(-n2nccn2)c1
In short, it runs like this:
as §1

Compound in assay [6]: NC1(c2ccc(-c3nc4ccn5c(=O)[nH]nc5c4cc3-c3ccccc3)cc2)CCC1
Summed up: as §1

Compound in assay [7]: NCC(=O)Nc1ccc(-n2nc(C(F)(F)F)cc2-c2ccc3c(ccc4ccccc43)c2)cc1
In short, it runs like this: as §1

Compound in a further assay: O=C(CCCCCCC(=O)Nc1ccccc1)NO [vorinostat]
In short, it runs like this: as §1

Compound in another assay: O=C(O)c1ccc2c(c1)nc(Nc1cccc(Cl)c1)c1ccncc12 [silmitasertib]
Summed up:
as §1

Compound in assay [8]: O=C1NC(=O)C(c2cnc3ccccn23)=C1c1cn2c3c(cc(F)cc13)CN(C(=O)N1CCCCC1)CC2
In short, it runs like this:
as §1

Compound in a further assay: c1cn2cc(-c3ccc4cn[nH]c4c3)nc(Nc3ccc(N4CCOCC4)cc3)c2n1 [entospletinib]
In short, it runs like this: as §1

RFT1 (UniProt Q96AA3): the log2 fold change with nilotinib was inactive: 0.021; in assay [1], inactive: -0.034; in the assay with dasatinib it was inactive: 0.008; in assay [2], inactive: -0.024; in [3], inactive: 0.02; with quisinostat it was inactive: -0.065. Moreover, the log2 fold change with tipifarnib was inactive: -0.042; in [4], inactive: -0.037; in assay [5] it was inactive: 0.023; in assay [6], inactive: -0.008; in assay [7] it was inactive: 0.001; with vorinostat it was inactive: 0.083. Further, the log2 fold change in the assay with silmitasertib was inactive: 0.071; in [8], inactive: 0.002; with entospletinib it was inactive: -0.011.

As to RFX1 (UniProt P22670), the log2 fold change is inactive: 0.008 in the assay with nilotinib; inactive: -0.032 in [1]; inactive: -0.014 with dasatinib; inactive: 0.022 in assay [2]; inactive: 0.054 in assay [3]; inactive: -0.026 in the assay with quisinostat. The log2 fold change in the assay with tipifarnib was inactive: 0.031; in [4] it was inactive: 0.015; in assay [5], inactive: -0.032; in [6] it was inactive: 0.001; in [7] it was inactive: 0.01; with vorinostat it was inactive: 0.037. For the same target, the log2 fold change is inactive: -0.014 in the assay with silmitasertib, inactive: 0.013 in assay [8] and inactive: 0.029 with entospletinib.

As for RBX1 (UniProt P62877), the log2 fold change with nilotinib was inactive: -0.015; in assay [1] it was inactive: 0.343; with dasatinib, inactive: 0.193; in assay [2] it was inactive: -0.064; in assay [3] it was inactive: -0.208; with quisinostat it was inactive: -0.162. In addition, the log2 fold change in the assay with tipifarnib was inactive: -0.109; in assay [4] it was inactive: -0.055; in assay [5], inactive: 0.039; in assay [6] it was inactive: -0.062; in assay [7], inactive: 0.107; with vorinostat, inactive: -0.155. In addition, the log2 fold change was inactive: 0.36 with silmitasertib, inactive: -0.152 in assay [8] and inactive: 0.334 in the assay with entospletinib.

RCC1 isoform 2 (UniProt P18754): the log2 fold change with nilotinib was inactive: 0.024; in [1] it was inactive: -0.024; with dasatinib, inactive: -0.071; in assay [2], inactive: 0.021; in assay [3] it was inactive: 0.034; with quisinostat, inactive: 0.001. Further, the log2 fold change was inactive: -0.011 with tipifarnib; inactive: 0.027 in [4]; inactive: -0.02 in assay [5]; inactive: -0.043 in [6]; inactive: 0.009 in assay [7]; active: -0.381 with vorinostat. In addition, the log2 fold change with silmitasertib was inactive: 0.034; in [8], inactive: 0.051; in the assay with entospletinib, inactive: -0.014.

For the target RCN2 isoform 2 (UniProt Q14257), the log2 fold change in the assay with nilotinib is inactive: 0.033; in assay [1], inactive: -0.007; with dasatinib, inactive: -0.026; in assay [2], inactive: 0.086; in assay [3], inactive: 0.025; in the assay with quisinostat, inactive: -0.003. For the same target, the log2 fold change in the assay with tipifarnib is inactive: 0.068; in assay [4] it was inactive: 0.043; in assay [5], inactive: -0.019; in assay [6], inactive: 0.035; in assay [7], inactive: -0.021; with vorinostat it was inactive: 0.092. In addition, the log2 fold change in the assay with silmitasertib was inactive: 0.047; in assay [8] it was inactive: -0.012; in the assay with entospletinib it was inactive: 0.039.

RBMX (UniProt P38159): the log2 fold change with nilotinib is inactive: 0.034; in [1], inactive: -0.079; in the assay with dasatinib, inactive: -0.029; in assay [2] it was inactive: -0.052; in assay [3], inactive: -0.007; with quisinostat, inactive: 0.042. For the same target, the log2 fold change is inactive: 0.005 with tipifarnib; inactive: 0.014 in assay [4]; inactive: 0.033 in assay [5]; inactive: -0.021 in assay [6]; inactive: -0.043 in [7]; inactive: 0.065 with vorinostat. Also, the log2 fold change with silmitasertib is inactive: 0.048; in [8] it was inactive: -0.022; with entospletinib, inactive: 0.008.

As for REV1 (UniProt Q9UBZ9), the log2 fold change in the assay with nilotinib was inactive: 0.012; in [1], inactive: 0.043; with dasatinib, inactive: 0.05; in assay [2], inactive: -0.038; in [3] it was inactive: -0.001; in the assay with quisinostat, inactive: 0.038. Also, the log2 fold change in the assay with tipifarnib is inactive: -0.031; in assay [4], inactive: -0.057; in assay [5], inactive: -0.005; in assay [6], inactive: 0.03; in assay [7], inactive: -0.177; in the assay with vorinostat, inactive: -0.02. In addition, the log2 fold change was inactive: -0.04 with silmitasertib, inactive: -0.108 in [8] and inactive: 0.046 with entospletinib.

On to RCE1 (UniProt Q9Y256), for which the log2 fold change with nilotinib was inactive: 0.136; in assay [1], inactive: -0.15; with dasatinib, inactive: 0.072; in assay [2], inactive: 0.15; in [3] it was inactive: 0.001; in the assay with quisinostat it was inactive: -0.115. For the same target, the log2 fold change with tipifarnib is inactive: 0.033; in assay [4], inactive: 0.019; in assay [5], inactive: -0.122; in assay [6] it was inactive: 0.068; in assay [7] it was inactive: -0.208; with vorinostat it was inactive: -0.034. Also, the log2 fold change was inactive: 0.092 with silmitasertib, inactive: -0.026 in assay [8] and inactive: -0.021 in the assay with entospletinib.

For the target RBM4 (UniProt Q9BWF3), the log2 fold change in the assay with nilotinib is inactive: -0.086; in assay [1], inactive: -0.011; with dasatinib, inactive: 0.032; in [2], inactive: 0.029; in assay [3] it was inactive: 0.03; with quisinostat, inactive: 0.033. Also, the log2 fold change with tipifarnib is inactive: -0.067; in assay [4], inactive: 0.034; in [5], inactive: 0.046; in [6], inactive: 0.029; in assay [7] it was inactive: -0.04; with vorinostat it was inactive: -0.172. In addition, the log2 fold change with silmitasertib is inactive: 0.035; in assay [8], inactive: -0.097; with entospletinib it was inactive: 0.001.
